Assay [1] deals with TβR-V purified from bovine liver plasma membranes (bovine) (UniProt E1BGJ0). Briefly: affinity labeling: 10 nM 125I-IGFBP-3 on purified bovine TβR-V, DSS cross-linking, SDS-PAGE, autoradiography.
For assay [2] the target is unchanged. Briefly: affinity labeling: 0.1 nM 125I-TGF-β1 on purified bovine TβR-V, DSS cross-linking, SDS-PAGE, autoradiography.
For assay [3], the target named is T1, α2M activated by methylamine (α2M*) (human) (UniProt P01023).
T1 sequence (activated by methylamine; 125I-labelled where used as tracer, looked up): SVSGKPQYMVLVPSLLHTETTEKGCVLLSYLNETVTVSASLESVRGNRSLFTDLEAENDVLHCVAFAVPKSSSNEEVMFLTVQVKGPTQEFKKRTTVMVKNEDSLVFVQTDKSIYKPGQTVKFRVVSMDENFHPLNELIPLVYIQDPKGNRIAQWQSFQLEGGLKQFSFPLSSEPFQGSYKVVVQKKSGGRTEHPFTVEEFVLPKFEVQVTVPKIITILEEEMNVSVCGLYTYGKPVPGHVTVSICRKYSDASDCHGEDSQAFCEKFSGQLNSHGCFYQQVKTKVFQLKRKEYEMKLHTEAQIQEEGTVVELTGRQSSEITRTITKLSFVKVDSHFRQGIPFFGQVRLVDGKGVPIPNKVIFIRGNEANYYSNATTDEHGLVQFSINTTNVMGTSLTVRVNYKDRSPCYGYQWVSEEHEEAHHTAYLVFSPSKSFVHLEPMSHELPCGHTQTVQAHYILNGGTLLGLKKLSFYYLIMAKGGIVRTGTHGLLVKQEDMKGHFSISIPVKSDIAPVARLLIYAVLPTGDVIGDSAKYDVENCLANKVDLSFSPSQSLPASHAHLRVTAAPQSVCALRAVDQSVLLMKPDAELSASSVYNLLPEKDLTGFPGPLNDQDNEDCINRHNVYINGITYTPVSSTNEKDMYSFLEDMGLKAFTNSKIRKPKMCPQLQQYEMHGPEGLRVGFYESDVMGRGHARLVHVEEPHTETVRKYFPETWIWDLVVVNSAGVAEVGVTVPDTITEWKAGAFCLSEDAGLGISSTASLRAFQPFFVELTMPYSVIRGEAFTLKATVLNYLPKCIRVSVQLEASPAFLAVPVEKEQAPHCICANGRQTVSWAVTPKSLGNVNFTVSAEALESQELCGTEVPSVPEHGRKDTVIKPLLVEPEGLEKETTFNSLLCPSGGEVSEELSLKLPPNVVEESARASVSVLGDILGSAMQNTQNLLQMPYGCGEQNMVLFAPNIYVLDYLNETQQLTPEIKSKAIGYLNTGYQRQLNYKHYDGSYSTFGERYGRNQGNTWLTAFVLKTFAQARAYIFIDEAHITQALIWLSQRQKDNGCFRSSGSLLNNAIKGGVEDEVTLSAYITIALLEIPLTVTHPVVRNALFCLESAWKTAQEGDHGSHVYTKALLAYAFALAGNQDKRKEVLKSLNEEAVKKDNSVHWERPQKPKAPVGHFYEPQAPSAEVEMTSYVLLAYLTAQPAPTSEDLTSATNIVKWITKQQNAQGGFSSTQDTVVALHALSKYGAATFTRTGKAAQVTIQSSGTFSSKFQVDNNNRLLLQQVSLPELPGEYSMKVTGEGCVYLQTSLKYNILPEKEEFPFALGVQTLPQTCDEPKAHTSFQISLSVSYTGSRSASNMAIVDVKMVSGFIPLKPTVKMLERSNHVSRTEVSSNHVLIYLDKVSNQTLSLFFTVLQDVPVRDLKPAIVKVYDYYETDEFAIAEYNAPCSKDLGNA
The assay is described as follows: α2M*-Sepharose 4B affinity chromatography at pH 6 of bovine liver plasma membrane extracts; heavy chain detected by Western blot (data not shown). (In general: Immunoblotting shows a protein as a band on a membrane.)

By UniProt entry, the sequences of proteins in these tests, tags left out. Where a name states a change or a piece, a line headed by the entry shows the natural chain unless it says otherwise. Chains listed by the source or under a name are the forms on record and can include a tag or linker. Residues count along the entry.
TβR-V purified from bovine liver plasma membranes (E1BGJ0, form named): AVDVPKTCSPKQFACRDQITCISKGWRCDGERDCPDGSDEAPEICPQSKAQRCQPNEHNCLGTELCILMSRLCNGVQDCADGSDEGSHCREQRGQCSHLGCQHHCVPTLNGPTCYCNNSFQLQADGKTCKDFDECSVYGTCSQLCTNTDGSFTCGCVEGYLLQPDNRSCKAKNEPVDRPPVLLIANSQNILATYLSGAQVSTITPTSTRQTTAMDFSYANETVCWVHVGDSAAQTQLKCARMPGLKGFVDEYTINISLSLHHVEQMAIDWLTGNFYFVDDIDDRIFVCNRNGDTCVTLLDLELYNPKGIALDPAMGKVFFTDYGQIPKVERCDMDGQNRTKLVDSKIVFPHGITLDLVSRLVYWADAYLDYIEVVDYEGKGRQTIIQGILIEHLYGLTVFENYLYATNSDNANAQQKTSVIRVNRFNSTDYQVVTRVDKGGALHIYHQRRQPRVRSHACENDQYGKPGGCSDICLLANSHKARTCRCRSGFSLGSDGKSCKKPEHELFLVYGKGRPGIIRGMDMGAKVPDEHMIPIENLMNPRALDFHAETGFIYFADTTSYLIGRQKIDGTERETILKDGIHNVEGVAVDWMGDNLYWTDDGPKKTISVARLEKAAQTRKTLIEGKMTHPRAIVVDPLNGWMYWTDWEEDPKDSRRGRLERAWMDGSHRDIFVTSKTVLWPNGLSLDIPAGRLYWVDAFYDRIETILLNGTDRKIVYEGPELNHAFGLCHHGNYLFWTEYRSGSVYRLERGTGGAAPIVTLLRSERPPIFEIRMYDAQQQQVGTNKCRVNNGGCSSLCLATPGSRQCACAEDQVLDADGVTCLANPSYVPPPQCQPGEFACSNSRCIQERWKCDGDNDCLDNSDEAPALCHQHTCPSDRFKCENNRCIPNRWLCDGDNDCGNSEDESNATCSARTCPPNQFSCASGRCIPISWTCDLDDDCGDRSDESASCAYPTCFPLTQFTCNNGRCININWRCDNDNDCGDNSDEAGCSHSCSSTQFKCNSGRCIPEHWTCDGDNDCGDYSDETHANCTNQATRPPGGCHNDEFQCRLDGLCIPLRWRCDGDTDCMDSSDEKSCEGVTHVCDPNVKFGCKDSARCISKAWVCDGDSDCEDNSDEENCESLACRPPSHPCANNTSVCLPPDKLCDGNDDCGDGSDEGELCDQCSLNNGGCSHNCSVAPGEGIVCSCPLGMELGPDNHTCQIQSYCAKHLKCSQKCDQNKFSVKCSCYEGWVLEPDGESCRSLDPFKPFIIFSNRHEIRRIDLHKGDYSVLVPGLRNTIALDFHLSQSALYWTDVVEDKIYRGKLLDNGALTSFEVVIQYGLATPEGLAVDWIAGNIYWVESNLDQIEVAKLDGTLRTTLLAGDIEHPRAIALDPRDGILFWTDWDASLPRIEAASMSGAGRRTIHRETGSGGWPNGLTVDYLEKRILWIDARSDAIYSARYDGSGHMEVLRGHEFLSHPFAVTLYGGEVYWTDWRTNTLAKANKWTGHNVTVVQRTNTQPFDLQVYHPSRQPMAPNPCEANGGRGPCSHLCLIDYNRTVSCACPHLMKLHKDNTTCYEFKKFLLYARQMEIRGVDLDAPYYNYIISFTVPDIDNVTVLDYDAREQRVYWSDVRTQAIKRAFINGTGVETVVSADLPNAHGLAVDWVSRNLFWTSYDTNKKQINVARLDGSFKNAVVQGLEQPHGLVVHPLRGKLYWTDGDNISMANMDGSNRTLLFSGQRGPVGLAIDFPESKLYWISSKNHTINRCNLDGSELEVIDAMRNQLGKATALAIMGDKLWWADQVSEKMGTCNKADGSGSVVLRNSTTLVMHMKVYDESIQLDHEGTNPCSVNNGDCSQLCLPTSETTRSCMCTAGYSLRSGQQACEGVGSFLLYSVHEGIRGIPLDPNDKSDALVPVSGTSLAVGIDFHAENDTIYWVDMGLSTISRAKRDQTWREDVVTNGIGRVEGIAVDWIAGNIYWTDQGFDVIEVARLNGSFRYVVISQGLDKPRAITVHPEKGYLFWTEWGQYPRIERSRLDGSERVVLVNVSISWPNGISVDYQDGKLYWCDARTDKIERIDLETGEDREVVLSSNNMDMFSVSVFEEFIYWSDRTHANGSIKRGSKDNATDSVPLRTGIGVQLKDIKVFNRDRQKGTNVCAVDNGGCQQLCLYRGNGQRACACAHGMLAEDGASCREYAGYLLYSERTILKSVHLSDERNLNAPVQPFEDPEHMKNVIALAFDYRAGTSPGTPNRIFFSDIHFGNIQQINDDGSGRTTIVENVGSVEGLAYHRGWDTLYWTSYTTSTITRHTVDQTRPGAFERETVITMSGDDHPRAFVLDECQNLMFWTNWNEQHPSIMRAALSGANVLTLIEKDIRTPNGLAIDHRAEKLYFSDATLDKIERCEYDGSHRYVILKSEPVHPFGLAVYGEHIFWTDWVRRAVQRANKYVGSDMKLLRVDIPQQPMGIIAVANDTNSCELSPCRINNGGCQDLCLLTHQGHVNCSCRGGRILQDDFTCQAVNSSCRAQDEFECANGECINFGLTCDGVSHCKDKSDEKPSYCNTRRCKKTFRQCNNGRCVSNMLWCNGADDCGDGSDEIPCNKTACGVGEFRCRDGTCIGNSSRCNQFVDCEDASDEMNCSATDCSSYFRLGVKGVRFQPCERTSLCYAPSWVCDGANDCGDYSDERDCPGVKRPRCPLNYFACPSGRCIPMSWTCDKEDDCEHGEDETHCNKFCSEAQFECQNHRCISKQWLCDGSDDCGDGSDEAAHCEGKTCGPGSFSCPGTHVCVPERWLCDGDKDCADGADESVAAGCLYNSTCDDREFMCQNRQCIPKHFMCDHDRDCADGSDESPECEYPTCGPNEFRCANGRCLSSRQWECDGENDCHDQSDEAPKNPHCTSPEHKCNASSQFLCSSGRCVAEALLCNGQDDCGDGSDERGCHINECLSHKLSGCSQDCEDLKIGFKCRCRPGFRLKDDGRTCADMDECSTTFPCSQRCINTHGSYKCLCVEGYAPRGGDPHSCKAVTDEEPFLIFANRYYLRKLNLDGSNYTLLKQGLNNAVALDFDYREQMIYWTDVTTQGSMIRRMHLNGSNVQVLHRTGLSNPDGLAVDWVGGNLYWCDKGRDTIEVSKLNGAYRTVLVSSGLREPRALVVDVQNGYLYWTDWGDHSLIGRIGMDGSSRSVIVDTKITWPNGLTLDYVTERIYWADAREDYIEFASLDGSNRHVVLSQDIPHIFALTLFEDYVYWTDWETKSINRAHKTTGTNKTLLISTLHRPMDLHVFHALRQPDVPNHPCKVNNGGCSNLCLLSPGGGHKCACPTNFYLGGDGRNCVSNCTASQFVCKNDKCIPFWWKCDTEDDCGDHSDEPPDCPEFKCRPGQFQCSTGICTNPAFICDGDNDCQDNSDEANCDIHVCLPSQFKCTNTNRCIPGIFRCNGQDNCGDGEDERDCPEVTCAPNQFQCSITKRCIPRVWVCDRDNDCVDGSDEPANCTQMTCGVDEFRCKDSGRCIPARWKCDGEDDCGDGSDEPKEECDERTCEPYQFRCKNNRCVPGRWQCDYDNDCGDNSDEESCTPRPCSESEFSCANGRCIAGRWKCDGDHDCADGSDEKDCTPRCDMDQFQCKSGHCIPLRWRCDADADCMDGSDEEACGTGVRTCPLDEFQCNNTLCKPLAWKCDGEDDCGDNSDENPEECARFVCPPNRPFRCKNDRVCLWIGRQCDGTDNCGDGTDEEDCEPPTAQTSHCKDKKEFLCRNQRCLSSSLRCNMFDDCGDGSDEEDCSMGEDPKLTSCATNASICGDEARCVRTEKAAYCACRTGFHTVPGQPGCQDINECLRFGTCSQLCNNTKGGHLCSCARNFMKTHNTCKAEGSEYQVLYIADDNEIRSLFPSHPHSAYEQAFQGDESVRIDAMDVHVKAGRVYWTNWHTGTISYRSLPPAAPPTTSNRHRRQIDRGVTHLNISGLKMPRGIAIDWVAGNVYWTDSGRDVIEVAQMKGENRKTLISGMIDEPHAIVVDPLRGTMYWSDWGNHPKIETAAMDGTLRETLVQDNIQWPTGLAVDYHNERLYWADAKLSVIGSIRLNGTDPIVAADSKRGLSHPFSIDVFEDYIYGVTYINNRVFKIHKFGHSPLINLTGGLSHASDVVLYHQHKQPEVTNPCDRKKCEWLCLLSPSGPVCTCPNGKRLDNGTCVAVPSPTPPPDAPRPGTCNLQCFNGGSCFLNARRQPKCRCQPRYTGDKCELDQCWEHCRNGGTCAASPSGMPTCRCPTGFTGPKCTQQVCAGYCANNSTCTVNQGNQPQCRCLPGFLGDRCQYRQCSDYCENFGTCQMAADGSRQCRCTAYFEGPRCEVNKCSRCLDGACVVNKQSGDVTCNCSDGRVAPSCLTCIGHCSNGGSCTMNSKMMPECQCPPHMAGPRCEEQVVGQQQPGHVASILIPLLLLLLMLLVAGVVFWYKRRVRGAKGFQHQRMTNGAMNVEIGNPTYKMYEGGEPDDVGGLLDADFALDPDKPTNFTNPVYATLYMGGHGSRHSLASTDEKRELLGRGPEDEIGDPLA
UniProt P17936, residues 28-291: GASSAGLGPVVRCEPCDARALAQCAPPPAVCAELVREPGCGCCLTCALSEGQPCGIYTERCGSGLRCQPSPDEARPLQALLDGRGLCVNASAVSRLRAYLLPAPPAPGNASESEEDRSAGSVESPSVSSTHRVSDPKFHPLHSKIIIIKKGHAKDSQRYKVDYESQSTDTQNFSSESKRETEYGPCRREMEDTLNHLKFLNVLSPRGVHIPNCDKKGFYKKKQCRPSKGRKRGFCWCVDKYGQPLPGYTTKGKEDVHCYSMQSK
UniProt P01137, residues 279-390: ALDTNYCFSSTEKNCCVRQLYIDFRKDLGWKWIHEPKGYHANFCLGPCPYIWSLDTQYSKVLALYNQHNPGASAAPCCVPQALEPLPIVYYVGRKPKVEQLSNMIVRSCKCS

These are yes or no findings as the source states them, for the method shown. Some binding calls cover weakened binding; strength is not graded here.

As for “Human IGFBP-3 (expressed in E. Coli, M.W. ~35,000) (from UniProt P17936 28-291) (ligand)”, the binding entry in assay [1] is given as “binds”. “Human TGF-β1 (from UniProt P01137 279-390) (ligand)”: the binding entry in assay [2] is listed as “binds”. As to “TβR-V purified from bovine liver plasma membranes (from UniProt E1BGJ0 20-4546) (receptor)”, the binding result in assay [3] was “binds”.

The values above are taken from patent US20050250692A1.
